In PubChem BioAssay AID651640 (Broad Institute, 2012):
The campaign covered roughly 350,000 compounds. About 6,000 (1.7%) were called active. The shares of active, inactive and inconclusive entries below differ from those in the screen. Rule as the data show it: active = CPE inhibition above about 20% (passing the limit was not always enough); inconclusive = no clear call, values can overlap the other calls; tested in BHK-21 cells.

test: protection of cells from dengue 2 killing – plate reader, single concentration, primary screen (AID 651640); conditions: DENV2-infected cells, cytopathic effect rescue, at 9.99 µM, stronger effect = higher value;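 also: 0% = median of neutral control wells and 100% = median of positive control wells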

Row | SMILES | CPE inhibition
1 | OC[C@H]1[C@@H](c2ccc(Br)cc2)[C@@H]2CNCCCCN12 | inconclusive: 28.9%
2 | O=C(Nc1ccccc1)SC1CCCCC1 | inactive: 0.6%
3 | O=C1c2ccccc2NC(c2ccccc2Cl)N1N=C1CCCCCC1 (stereo not given) | inconclusive: 24.1%
4 | CCc1cccc2c(C(=O)CN3C(=O)C(=O)N(C4CCCC4)C3=O)c[nH]c12 | inconclusive: 24.3%
5 | C[C@H]1CN([C@@H](C)CO)C(=O)c2cccc(NC(=O)Nc3ccccc3)c2O[C@H]1CN(C)S(=O)(=O)c1ccc(Cl)cc1 | active: 29.2%
6 | CC(O)CNC1c2ccccc2CC1O (stereo not given) | active: 62.9%
7 | O=C(Cc1cccs1)Nc1cccc([N+](=O)[O-])c1 | inactive: 6.27%
8 | Cc1cc(C(C)(C)C)cc(C)c1CC1=NCCN1 | inconclusive: 38%
9 | COCC(=O)Nc1ccc2c(c1)C(=O)N(C)C[C@H](OC)[C@@H](C)CN(C(=O)c1ccccn1)[C@@H](C)CO2 | inactive: 16%
10 | COc1ccc2cc(C[C@@H]3CC[C@@H](CNC(N)=O)O3)ccc2c1 | inconclusive: 36.6%
11 | O=C(Nc1ccc(Cl)cc1F)C1CC(=O)N(Cc2ccco2)C1 (stereo not given) | inconclusive: 60.7%
12 | CCOc1ccc(NC(C(=O)Nc2cccc(C(C)=O)c2)c2ccccc2)cc1 (stereo not given) | inconclusive: 47.9%
13 | N[C@@H](CO)c1nnc([C@H](CC(=O)O)NC(=O)C2CCNCC2)o1 | inconclusive: 62.3%
14 | Cc1[nH]c2ccccc2c1/C=N/NC(=S)NC(C)C | inactive: -8.51%
15 | CC(=NNc1nc2ccccc2o1)c1cc2ccccc2cn1 | inactive: -0.084%
16 | CC1CCC(N2CCN(c3ccc([N+](=O)[O-])cc3)CC2)CC1 (stereo not given) | inconclusive: 28.1%
17 | C[C@@H]1CN([C@@H](C)CO)C(=O)Cc2cc(NC(=O)CCC(F)(F)F)ccc2O[C@@H]1CN(C)C(=O)Nc1ccc(F)cc1 | inconclusive: 65.5%
18 | O=C(C[C@@H]1C=C[C@H](NC(=O)C2CCC2)[C@@H](CO)O1)NCc1ccncc1 | inactive: 13.8%
19 | COc1ccc(NC(=O)Nc2ccc3c(c2)CC(=O)N([C@@H](C)CO)C[C@H](C)[C@@H](CN(C)C(=O)Nc2ccccc2)O3)cc1 | active: 45.6%
20 | CCCNC(=O)[C@@H]1[C@@H](CO)[C@@H]2Cn3c(ccc(-c4ccccc4F)c3=O)[C@@H]2N1CCC | inconclusive: 20.4%
21 | C[C@H](CO)N1C[C@H](C)[C@@H](CN(C)Cc2ccc(Cl)c(Cl)c2)Oc2ccc(NC(=O)c3ccncc3)cc2C1=O | inactive: -2.88%
22 | C[C@H]1CN([C@@H](C)CO)C(=O)c2cc(NC(=O)Nc3ccc4c(c3)OCO4)ccc2O[C@@H]1CN(C)C(=O)NC1CCCCC1 | inconclusive: 21.6%
23 | COC(=O)[C@]1(Cc2ccccc2)N[C@H](CN(C)C(=O)c2ccc(F)cc2)[C@@H]2C(=O)N(C)C(=O)[C@@H]21 | inconclusive: 56.9%

Row | SMILES | CPE inhibition
24 | C[C@@H]1CCCCO[C@H](CN(C)CC2CC2)[C@H](C)CN([C@H](C)CO)C(=O)c2cc(NC(=O)c3ccncc3)ccc2O1 | inconclusive: 69.2%
25 | Cc1ccc(S(=O)(=O)N2CCC(C(=O)NCCCN3CCCC3=O)CC2)cc1 | inconclusive: 52.8%
26 | CCCCn1c(N)c(N(CCC(C)C)C(=O)CC2CCCCC2)c(=O)[nH]c1=O | inconclusive: 56.5%
27 | O=C(c1cccc(F)c1)N1CC(=O)N2[C@H](CO)[C@H](c3ccc(-c4ccccc4F)cc3)[C@@H]2C1 | inactive: 4.08%
28 | COC(=O)C1=C(C)N(Cc2ccc(C(F)(F)F)cc2)C(=NCc2ccc(C(F)(F)F)cc2)NC1c1ccc(F)cc1 (stereo not given) | inactive: -7.31%
29 | C[C@@H]1CN([C@@H](C)CO)C(=O)CCCn2cc(nn2)CO[C@H]1CN(C)Cc1ccccc1C(=O)O | inconclusive: 37.9%
30 | CC(C)NC(=O)N(C)C[C@@H]1Oc2c(NC(=O)Nc3ccccc3)cccc2C(=O)N([C@H](C)CO)C[C@@H]1C | inconclusive: 25.4%
31 | Cc1nc(/N=C\c2ccc(N(C)C)cc2)sc1C | active: 32.6%
32 | O=C(NNS(=O)(=O)c1ccccc1C(F)(F)F)c1cc2ncc(C(F)(F)F)cc2s1 | inconclusive: 20.5%
33 | COc1ccc(S(=O)(=O)N(C)C[C@@H]2OCCCC[C@@H](C)Oc3ccc(NC(=O)c4ccccc4)cc3C(=O)N([C@@H](C)CO)C[C@H]2C)cc1 | active: 53.6%
34 | Cc1cc(C(=O)Nc2cccc3c2O[C@@H](CN(C)S(=O)(=O)c2cn(C)cn2)[C@H](C)CN([C@@H](C)CO)C3=O)n(C)n1 | inconclusive: 29.7%
35 | Cc1ccc(S(=O)(=O)NC(=O)C2(C)CCN2C(=O)c2ccccc2CCc2ccccc2)nc1 (stereo not given) | inconclusive: 26.9%
36 | CC(=O)NC[C@H]1[C@H](c2ccc(-c3ccccc3F)cc2)[C@@H](CO)N1C(=O)C1CC1 | active: 81.3%
37 | O=C(C[C@@H]1C[C@@H]2c3cc(NS(=O)(=O)c4ccccc4)ccc3O[C@@H]2[C@@H](CO)O1)NCC1CC1 | inactive: -5.27%
38 | COc1ccc(C2=NS(=O)(=O)N(C)C(C(=O)NC(C)c3ccccc3)=C2)cc1OC (stereo not given) | inconclusive: 23.7%
39 | Cc1nnc(NC(=O)CSc2nnc(CNC(=O)c3ccc(F)cc3)o2)s1 | inconclusive: 20.5%
40 | C[C@H](CO)N1C[C@H](C)[C@H](CN(C)S(=O)(=O)c2ccc(Cl)cc2)Oc2c(NS(=O)(=O)c3cccs3)cccc2C1=O | inconclusive: 23.8%
41 | COc1ccc(NC(=O)Nc2ccc3c(c2)C(=O)N([C@@H](C)CO)C[C@H](C)[C@H](CN(C)C(=O)c2ccccc2)OCCCC[C@@H](C)O3)cc1 | inconclusive: 40.4%
42 | O=C1N(c2ccccc2)CCN1c1ccccc1 | inactive: 5.77%
43 | CCCCCC(=O)Nc1cc(S(=O)(=O)N2CCOCC2)ccc1N1CCCC1 | inconclusive: 49.4%
44 | CC(C)NC(=O)N1[C@@H](C#N)[C@@H](c2ccc(-c3ccc(F)cc3)cc2)[C@@H]1CO | inconclusive: 28%
45 | COc1ccc([Si](C)(C)[C@@H]2[C@@H](CCO)O[C@]3(C(=O)N(Cc4ccccc4)c4ccc(N5CCOC5=O)cc43)[C@H]2C)cc1 | inactive: 3.75%

Rewritten as labelled records: part of the list above.
Cc1nc(/N=C\c2ccc(N(C)C)cc2)sc1C
  CPE inhibition: active: 32.6%
O=C(NNS(=O)(=O)c1ccccc1C(F)(F)F)c1cc2ncc(C(F)(F)F)cc2s1
  CPE inhibition: inconclusive: 20.5%
COc1ccc(S(=O)(=O)N(C)C[C@@H]2OCCCC[C@@H](C)Oc3ccc(NC(=O)c4ccccc4)cc3C(=O)N([C@@H](C)CO)C[C@H]2C)cc1
  CPE inhibition: active: 53.6%
Cc1cc(C(=O)Nc2cccc3c2O[C@@H](CN(C)S(=O)(=O)c2cn(C)cn2)[C@H](C)CN([C@@H](C)CO)C3=O)n(C)n1
  CPE inhibition: inconclusive: 29.7%
